Experimental data reported in patent publication US20200157186A1.
These are yes or no findings as the source states them, for the method shown. Some entries that bind do so weakly or less than the wild type.

The chains behind the UniProt entries cited, without tags or fusion partners. Residues count along the entry.
UniProt P02461, residues 154-1221: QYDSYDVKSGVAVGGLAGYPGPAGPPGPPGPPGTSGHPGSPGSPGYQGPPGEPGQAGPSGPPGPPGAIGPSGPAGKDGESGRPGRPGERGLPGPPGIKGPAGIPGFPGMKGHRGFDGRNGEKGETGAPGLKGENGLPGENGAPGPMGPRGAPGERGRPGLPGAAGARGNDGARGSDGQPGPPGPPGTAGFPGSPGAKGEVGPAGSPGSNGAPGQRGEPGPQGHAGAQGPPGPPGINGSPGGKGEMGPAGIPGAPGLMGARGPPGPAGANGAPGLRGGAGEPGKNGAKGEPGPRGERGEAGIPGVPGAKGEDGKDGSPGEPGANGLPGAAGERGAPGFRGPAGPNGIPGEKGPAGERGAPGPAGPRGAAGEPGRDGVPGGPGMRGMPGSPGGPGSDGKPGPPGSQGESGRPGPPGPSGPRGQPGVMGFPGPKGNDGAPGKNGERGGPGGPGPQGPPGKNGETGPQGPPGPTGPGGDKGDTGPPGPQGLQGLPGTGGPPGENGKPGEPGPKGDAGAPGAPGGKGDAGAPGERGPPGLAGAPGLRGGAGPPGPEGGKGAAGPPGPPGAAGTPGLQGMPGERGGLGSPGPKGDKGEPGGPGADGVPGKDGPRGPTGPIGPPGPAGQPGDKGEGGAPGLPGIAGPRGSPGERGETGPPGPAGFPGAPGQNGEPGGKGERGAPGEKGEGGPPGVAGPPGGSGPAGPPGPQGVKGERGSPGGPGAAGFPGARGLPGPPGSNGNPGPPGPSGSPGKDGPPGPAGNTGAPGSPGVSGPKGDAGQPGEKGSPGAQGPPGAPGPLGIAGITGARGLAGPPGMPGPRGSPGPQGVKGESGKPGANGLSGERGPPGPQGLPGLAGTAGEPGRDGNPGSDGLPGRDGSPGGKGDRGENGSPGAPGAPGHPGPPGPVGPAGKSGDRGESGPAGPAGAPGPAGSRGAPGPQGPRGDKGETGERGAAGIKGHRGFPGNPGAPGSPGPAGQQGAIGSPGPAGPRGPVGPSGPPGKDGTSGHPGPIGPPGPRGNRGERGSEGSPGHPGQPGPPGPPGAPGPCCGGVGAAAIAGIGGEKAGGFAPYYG
UniProt P04275, residues 764-2813: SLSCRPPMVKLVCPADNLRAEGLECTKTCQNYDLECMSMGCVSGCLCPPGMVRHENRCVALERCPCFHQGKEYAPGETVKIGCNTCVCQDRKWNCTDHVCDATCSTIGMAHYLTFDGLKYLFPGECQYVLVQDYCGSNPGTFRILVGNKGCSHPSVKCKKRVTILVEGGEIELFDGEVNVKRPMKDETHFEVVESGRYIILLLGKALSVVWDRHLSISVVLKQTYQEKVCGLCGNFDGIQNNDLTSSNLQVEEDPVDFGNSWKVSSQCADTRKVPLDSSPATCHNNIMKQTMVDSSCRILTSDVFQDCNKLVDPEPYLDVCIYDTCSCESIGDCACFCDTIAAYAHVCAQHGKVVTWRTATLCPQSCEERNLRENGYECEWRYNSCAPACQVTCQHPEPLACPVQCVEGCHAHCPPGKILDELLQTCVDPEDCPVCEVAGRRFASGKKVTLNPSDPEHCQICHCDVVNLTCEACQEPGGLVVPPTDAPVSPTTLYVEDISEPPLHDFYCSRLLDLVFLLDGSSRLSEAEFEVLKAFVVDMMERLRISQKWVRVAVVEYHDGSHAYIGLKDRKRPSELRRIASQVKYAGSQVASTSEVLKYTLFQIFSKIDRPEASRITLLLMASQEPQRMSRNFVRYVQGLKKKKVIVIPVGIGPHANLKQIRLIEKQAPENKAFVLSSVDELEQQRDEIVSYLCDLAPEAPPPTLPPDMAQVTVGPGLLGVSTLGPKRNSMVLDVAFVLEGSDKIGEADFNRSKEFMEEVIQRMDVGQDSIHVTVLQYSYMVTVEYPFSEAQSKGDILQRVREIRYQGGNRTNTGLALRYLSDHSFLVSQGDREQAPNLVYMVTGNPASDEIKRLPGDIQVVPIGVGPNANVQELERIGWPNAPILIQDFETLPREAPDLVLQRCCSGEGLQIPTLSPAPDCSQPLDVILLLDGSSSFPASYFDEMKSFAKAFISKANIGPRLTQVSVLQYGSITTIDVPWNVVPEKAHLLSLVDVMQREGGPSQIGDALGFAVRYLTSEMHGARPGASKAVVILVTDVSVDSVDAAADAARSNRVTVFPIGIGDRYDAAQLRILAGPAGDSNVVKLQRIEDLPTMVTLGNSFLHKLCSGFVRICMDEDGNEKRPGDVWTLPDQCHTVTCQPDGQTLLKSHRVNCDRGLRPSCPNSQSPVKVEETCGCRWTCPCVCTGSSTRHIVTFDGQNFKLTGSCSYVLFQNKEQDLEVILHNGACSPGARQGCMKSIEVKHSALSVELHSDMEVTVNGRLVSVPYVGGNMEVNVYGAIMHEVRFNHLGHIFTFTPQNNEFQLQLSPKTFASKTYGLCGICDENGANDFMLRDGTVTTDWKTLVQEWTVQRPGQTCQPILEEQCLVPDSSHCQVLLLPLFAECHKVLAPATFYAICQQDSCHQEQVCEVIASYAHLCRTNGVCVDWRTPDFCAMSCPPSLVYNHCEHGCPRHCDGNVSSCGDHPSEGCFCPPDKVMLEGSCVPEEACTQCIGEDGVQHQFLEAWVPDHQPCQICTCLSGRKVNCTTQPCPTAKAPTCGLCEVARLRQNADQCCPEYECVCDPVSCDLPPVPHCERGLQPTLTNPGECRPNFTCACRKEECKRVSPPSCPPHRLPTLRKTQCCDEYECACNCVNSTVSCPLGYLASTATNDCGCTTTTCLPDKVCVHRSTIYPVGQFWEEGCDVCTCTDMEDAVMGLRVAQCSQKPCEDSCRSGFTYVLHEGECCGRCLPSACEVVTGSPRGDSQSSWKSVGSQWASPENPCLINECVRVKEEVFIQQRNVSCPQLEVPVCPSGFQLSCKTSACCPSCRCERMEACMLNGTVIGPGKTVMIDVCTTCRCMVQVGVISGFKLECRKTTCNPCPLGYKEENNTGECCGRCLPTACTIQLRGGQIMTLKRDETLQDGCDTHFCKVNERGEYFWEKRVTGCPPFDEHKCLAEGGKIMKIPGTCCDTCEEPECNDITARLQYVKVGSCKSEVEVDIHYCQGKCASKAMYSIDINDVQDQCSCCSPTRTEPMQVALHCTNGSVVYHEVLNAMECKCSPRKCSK

Molecular target: human type III collagen (human) (UniProt P02461)
Assay: plate coated with human type III collagen, bound VWF detected with polyclonal anti-VWF antibodies; VWF antigen to collagen binding ratio

binding: binds
Substance: VWF derived from normal human plasma (from UniProt P04275 764-2813)
